# Results of single-concentration screens

Protein sequences, listed by entry. Tags and fused reporters are not part of them. Residues count along the entry.
UniProt I6X8D2, whole entry: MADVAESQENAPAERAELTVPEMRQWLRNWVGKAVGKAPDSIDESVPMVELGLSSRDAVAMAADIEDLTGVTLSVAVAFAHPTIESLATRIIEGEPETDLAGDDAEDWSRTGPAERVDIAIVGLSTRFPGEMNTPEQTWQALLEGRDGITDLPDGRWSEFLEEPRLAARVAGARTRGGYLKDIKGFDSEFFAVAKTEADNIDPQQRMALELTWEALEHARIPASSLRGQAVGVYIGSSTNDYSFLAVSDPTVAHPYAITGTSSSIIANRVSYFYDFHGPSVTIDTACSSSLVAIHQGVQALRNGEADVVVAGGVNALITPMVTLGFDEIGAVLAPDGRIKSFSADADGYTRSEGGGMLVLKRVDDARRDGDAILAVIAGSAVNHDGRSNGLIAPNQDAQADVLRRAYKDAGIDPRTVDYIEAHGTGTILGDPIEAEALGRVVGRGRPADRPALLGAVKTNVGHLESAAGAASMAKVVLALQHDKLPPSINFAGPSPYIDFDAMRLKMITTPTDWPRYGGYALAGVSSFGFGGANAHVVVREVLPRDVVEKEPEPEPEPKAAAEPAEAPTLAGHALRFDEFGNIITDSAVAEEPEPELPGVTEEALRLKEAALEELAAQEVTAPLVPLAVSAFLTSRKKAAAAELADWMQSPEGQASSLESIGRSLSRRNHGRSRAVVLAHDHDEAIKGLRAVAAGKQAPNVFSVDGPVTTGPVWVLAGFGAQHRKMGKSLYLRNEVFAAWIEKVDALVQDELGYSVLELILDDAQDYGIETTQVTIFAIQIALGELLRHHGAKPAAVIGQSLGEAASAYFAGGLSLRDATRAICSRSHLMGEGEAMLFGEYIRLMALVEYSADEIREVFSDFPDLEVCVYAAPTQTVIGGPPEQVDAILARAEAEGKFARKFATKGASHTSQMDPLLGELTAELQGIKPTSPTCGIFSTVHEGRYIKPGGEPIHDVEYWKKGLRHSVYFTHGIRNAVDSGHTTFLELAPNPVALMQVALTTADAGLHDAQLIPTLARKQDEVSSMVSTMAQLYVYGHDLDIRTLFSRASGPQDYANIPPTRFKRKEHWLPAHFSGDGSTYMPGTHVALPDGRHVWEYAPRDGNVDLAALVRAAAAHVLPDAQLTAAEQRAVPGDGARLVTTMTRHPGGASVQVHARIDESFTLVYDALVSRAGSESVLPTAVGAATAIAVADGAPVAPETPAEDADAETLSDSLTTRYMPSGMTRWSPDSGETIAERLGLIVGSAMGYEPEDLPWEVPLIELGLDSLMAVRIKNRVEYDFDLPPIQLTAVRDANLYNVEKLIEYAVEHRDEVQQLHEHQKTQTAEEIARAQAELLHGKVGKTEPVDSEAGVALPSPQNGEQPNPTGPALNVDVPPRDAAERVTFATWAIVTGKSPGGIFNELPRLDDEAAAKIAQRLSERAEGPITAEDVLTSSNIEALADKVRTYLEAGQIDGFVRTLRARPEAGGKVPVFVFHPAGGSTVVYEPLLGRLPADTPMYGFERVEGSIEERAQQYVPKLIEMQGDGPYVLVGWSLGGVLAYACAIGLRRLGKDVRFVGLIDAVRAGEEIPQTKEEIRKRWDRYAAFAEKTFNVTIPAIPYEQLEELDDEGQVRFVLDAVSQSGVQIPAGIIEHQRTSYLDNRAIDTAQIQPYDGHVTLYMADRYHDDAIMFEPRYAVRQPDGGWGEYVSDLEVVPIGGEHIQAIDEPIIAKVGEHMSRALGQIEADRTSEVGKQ
UniProt A4I591, 1-473: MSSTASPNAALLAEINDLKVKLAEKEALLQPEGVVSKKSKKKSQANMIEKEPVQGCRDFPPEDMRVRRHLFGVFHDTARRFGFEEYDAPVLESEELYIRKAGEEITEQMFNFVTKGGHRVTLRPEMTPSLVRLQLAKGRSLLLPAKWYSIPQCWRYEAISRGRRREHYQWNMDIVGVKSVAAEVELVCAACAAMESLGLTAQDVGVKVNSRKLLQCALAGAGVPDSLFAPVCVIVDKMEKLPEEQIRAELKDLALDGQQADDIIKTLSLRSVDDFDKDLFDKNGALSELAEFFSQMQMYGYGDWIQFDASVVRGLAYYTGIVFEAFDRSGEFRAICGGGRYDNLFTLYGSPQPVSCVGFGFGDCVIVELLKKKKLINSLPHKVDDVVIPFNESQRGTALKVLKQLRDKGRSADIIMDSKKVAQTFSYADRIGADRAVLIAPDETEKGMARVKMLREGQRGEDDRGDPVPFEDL

Data taken from ChEMBL document CHEMBL3988442, “University of Dundee, Small-Polar-MMV Screening Library” (2021).

Values are the deposited “Percent Effect”, in %.
How 0% and 100% were set is not recorded. Most values in the screen are low, and negative values occur.
Compounds were drawn at random from those tested, without regard to their results.
A dash means the value is not listed here; it may have been measured.

A: 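Enzyme assay of the thioesterase domain of polyketide synthase 13; the read-out is not stated. Target: Polyketide synthase Pks13, Mycobacterium tuberculosis (UniProt I6X8D2). Concentration: 30 µM. The record gives no direction; the compounds picked for IC50 retests had high values, so higher reads as stronger inhibition. Of about 67,000 compounds tested this way, about 300 (0.46%) reached 50% or more in at least one test.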
B: 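Enzyme assay of histidyl-tRNA synthetase; the read-out is not stated. Target: Histidine-tRNA ligase, Leishmania infantum (UniProt A4I591). Compounds at 30 µM. The record gives no direction; compounds that gave an IC50 in retests scored well above the rest, so higher reads as stronger inhibition. The assay is labelled LdHisRS but filed under L. infantum. Size under these conditions: about 69,000 compounds, about 410 of them at 50% or above in at least one test.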

SMILES,A,B
c1ncc2c(n1)CN(Cc1cn3ccsc3n1)CC2,-20.28%,41.94%
O=C(c1ccco1)N(CC(F)(F)F)C1CCOCC1,-32.31%,12.82%
COc1cccc(-c2ncc(CN3C[C@@H]4CC[C@H](C3)N(C)C4=O)s2)c1,-28.8%,17.5%
CSCc1nc(CCNC(=O)c2cnn(C(C)C)c2)cs1,-18.91%,11.11%
O=C(CSc1ccc2c(c1)OCCO2)NS(=O)(=O)c1cccnc1,-25.09%,-3.03%
CN1CCOCC12CCN(c1nncs1)CC2,-28.15%,18.42%
CC(C)Cc1noc(CN(C)c2ncccn2)n1,-5.028%,1.399%
Cc1nn(C)c2ncc(S(=O)(=O)N3CCCC(C(N)=O)C3)cc12 (centres undefined),-14.83%,2.667%
CC(=O)N1CCCC(c2nnc3n2CCN(C(=O)C2CCCCC2)C3)C1 (centres undefined),-3.119%,7.246%
Cc1ccc(S(=O)(=O)NC[C@H]2OC[C@@H](NCc3ccccc3)[C@@H]2O)cc1,-20.34%,12.16%
CCOc1ccc(C(F)(F)F)cc1NCc1nc(C)c(C)o1,-3.155%,12.77%
Cc1nn(CCc2nnc(NCC(C)C)s2)c(C)c1Br,-11%,-1.149%
Cc1ccc(C(=O)NCCSCc2cccs2)cn1,-10.78%,-1.835%
CC(C)(C)c1ncc(C(=O)NCCNC(=O)c2ccccc2)s1,-7.319%,19.7%
Cn1cnc(S(=O)(=O)NCC(O)c2ccc3c(c2)CCO3)c1 (centres undefined),-46.82%,10.39%
COc1ncc(CN2C[C@@H]3CC[C@@](O)(c4ccc(C)cn4)[C@@H]3C2)cn1,13.61%,14.43%
CCOCC1CN(Cc2cnn(C)c2)Cc2nn(C)cc21 (centres undefined),-9.137%,-1.961%
CC(C(=O)Nc1ccc(N2CCCC2)nc1)n1ccnc1 (centres undefined),-12.77%,14.29%
CCNC(=O)NC(=O)CSC(C)c1c(F)cccc1F (centres undefined),-13.52%,2.913%
Cc1cnn(C2CN(c3ccccc3S(=O)(=O)C(F)(F)F)C2)c1,2.985%,13.33%
c1ccc(CNC[C@H]2Cn3ccnc3CO2)cc1,-13.13%,9.459%
CCN(CC)Cc1ccc(CNC(=O)C(C)(C)n2cc(Br)cn2)cc1,-3.573%,-2.632%
CCN(CC)CCn1ccnc1-c1cccc(O)c1,-17.18%,19.4%
COc1cc(CN2CCCC23CCN(c2ccccn2)CC3)ccc1F,-42.41%,31.17%
CC(O)CN1CCN(C(=O)c2cnn(-c3ccccc3Cl)c2)CC1 (centres undefined),5.538%,6.25%
CCN1CC(C(=O)NCc2cccnc2-n2cccn2)CC1=O (centres undefined),-16.43%,9.735%
c1cc(CN2CCOCC3(CCNCC3)C2)ccn1,-26.99%,1%
COCC(=O)N(Cc1cccnc1)CC1CCN(C2CCCC2)CC1,-27.01%,11.43%
CCCN(CCC)c1ncc(S(=O)(=O)c2ccccc2)c(N)n1,-0.8409%,16.48%
O=C(c1cnc(-c2ccco2)s1)N1CCOc2ncccc21,-22.17%,15.71%
Cc1cnn(CC2CCCN2C(=O)c2c(F)cccc2Cl)c1 (centres undefined),-17.18%,8.547%
O=C(c1csc(-c2ncccn2)n1)N1CCN(C2CCCC2)CC1,-,17.46%
COCC1Cn2nnc(-c3cnn(C)c3)c2CN1Cc1cccs1 (centres undefined),-0.4364%,17.43%
COc1ccc(C(C(=O)O)N2CCC(O)(c3cccnc3)CC2)cc1F (centres undefined),-29.47%,11.43%
CN1CC(Oc2ccc(Cl)cc2)=NC(SCC(=O)Nc2ccccc2)=N1,-13.54%,5.882%
O=C(Cc1ccc2c(c1)OCCO2)NC1CC1,-2.201%,10.71%
OCC1(O)CCN(Cc2ccc(-c3cc[nH]n3)s2)CC1,-20.35%,5.263%
COc1ccc2c(c1)C(C(=O)N(C)CCc1cnn(C)c1)CC(=O)N2 (centres undefined),-23.14%,5.263%
O=C(CSc1nncs1)N1CCN(Cc2ccc(Cl)s2)CC1,-10.67%,21.15%
O=C(CN1C[C@H]2CC[C@@H]1CN(Cc1ccccn1)C2)NCc1cccs1,-8.664%,30.65%
Cc1cn2c(n1)CCC(NC(=O)CCOc1ccccc1F)C2 (centres undefined),-0.1655%,8.036%
Cc1ccc(S(=O)(=O)N2CCCC3(CCCN3S(C)(=O)=O)C2)cc1F (centres undefined),-25.15%,1.389%
O=C(NC1CCC(C(=O)N2CCSCC2)CC1)N1CCOCC1 (centres undefined),-13.44%,26.88%

For reference, 4 entries once more:

{"smiles": "Cc1ccc(S(=O)(=O)N2CCCC3(CCCN3S(C)(=O)=O)C2)cc1F", "stereo": "centres undefined", "A": -25.15, "B": 1.389}
{"smiles": "CCN(CC)Cc1ccc(CNC(=O)C(C)(C)n2cc(Br)cn2)cc1", "A": -3.573, "B": -2.632}
{"smiles": "CC(C)Cc1noc(CN(C)c2ncccn2)n1", "A": -5.028, "B": 1.399}
{"smiles": "COc1ccc2c(c1)C(C(=O)N(C)CCc1cnn(C)c1)CC(=O)N2", "stereo": "centres undefined", "A": -23.14, "B": 5.263}